Measured values published in publication PMC12751231.
No constants are given. Whether binding was seen depends on the method and setting. In cells and extracts the contact can be indirect. A result given as binding can be weak or reduced; the word gives no strength. Sequences can lack the tags named with a protein.

T1: CFAP57 (cilia and flagella associated protein 57), mouse (mouse (endogenous in testis)) (UniProt Q9D180)
T1 sequence: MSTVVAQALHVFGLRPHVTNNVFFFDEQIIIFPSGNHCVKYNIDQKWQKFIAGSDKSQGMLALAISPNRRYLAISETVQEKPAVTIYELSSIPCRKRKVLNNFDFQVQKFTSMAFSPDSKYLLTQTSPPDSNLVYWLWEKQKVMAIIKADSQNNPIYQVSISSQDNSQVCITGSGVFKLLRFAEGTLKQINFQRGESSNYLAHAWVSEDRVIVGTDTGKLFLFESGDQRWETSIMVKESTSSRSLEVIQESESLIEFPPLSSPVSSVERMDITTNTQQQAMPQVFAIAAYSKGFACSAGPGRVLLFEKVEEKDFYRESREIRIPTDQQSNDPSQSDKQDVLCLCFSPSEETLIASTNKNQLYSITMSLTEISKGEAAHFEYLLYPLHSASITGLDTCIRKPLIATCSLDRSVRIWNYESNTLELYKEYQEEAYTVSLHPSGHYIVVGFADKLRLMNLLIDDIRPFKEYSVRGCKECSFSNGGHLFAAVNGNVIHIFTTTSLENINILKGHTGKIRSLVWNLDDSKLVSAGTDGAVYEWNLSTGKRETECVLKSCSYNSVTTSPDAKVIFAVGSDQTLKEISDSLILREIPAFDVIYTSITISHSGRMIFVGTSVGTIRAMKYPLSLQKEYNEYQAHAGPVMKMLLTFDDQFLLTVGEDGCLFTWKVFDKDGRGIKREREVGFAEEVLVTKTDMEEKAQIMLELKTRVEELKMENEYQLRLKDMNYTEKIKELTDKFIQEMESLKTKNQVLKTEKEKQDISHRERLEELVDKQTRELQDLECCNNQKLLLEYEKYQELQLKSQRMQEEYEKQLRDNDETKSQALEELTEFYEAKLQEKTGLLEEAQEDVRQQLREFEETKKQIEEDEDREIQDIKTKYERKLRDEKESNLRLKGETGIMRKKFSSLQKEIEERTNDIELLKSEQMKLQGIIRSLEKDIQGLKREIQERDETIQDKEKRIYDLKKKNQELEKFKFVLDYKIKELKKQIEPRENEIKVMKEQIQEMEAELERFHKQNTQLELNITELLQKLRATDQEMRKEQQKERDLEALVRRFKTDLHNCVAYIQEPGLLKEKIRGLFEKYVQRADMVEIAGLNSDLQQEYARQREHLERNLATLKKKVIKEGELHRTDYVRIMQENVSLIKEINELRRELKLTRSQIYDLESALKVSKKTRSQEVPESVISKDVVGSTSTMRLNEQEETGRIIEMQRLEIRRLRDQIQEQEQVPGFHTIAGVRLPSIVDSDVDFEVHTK

B1: CFAP57 (cilia and flagella associated protein 57), mouse (protein, UniProt Q9D180 1-1249)
chain: T1 sequence

Columns and labels:
[1] = molecular target: T1, CFAP57 (cilia and flagella associated protein 57), mouse (mouse (endogenous in testis)); test: co-IP; WT mouse testis lysate; CFAP57, MYH10 or RAB1 antibody or rabbit IgG overnight at 4 °C, protein G agarose beads 4 h, five washes with lysis buffer; Western blotting with MYH10, RAB1 and CFAP57 antibodies
[2] = molecular target: RAB1, mouse (mouse (endogenous in testis)); test: as above

Molecule	binding [1]	binding [2]
RAB1, mouse	binds	
B1		binds
